Results from patent US20160279215A1, “NOVEL PEPTIDES AND COMBINATION OF PEPTIDES FOR USE IN IMMUNOTHERAPY AGAINST VARIOUS TUMORS” (immatics biotechnologies GmbH, priority 2015, published 2016).

Experiment: Identification and label-free relative LC-MS quantitation of HLA-presented peptides on tumor and normal tissue samples (XPRESIDENT presentation profiles)
Parameters: species or system human
Settings: for Entities of particular interest: entities where the peptide was over-presented on cancer samples compared to normal tissues; for Additional entities of particular interest (presentation of selected peptides across entities): tumor entities on which the HLA-presented peptide was found, entity abbreviations defined in the title of Table 4B

| Substance | Entities of particular interest | Additional entities of particular interest (presentation of selected peptides across entities) |
| --- | --- | --- |
| 2 (SVLEKEIYSI; listed as Homo sapiens) [compound 2] | NSCLC, HCC, BPH, OC, CRC, PC | GC, CLL, OSCAR, SCLC, UBC, UTC, BRCA, GBC_CCC, MEL, AML, NHL |
| 3 (RVIDDSLVVGV; listed as Homo sapiens) [compound 3] | NSCLC, HCC, OC, MEL, CRC, PC, OSCAR | UBC |
| 4 (VLFGELPAL; listed as Homo sapiens) [compound 4] | GB, NSCLC, BRCA, RCC, PC, OC, PC | SCLC, UBC, UTC |
| 5 (GLVDIMVHL; listed as Homo sapiens) [compound 5] | NSCLC, RCC, OC | SCLC, UBC, BRCA, MEL, PC |
| 6 (FLNAIETAL; listed as Homo sapiens) [compound 6] |  | RCC |
| 7 (ALLQALMEL; listed as Homo sapiens) [compound 7] | GC, NSCLC, RCC, CRC, PC | CLL, OSCAR, OC, SCLC, UTC, BRCA, GBC_CCC, MEL, AML, NHL |
| 9 (SLITGQDLLSV; listed as Homo sapiens) [compound 9] | NSCLC, BPH, OC, MEL, PC, OSCAR | SCLC, UBC, UTC, BRCA, GBC_CCC |
| 12 (RLLDPKTIFL; listed as Homo sapiens) [compound 12] | NSCLC, RCC |  |
| 13 (RLHDENILL; listed as Homo sapiens) [compound 13] | GB, GC, NSCLC, HCC, BPH, OC, RCC, CRC, PC, OSCAR | SCLC, UBC, UTC, BRCA, MEL, AML, NHL |
| 15 (GLPSATTTV; listed as Homo sapiens) [compound 15] | GC, NSCLC, OC, PC | UBC, UTC, MEL |
| 16 (SLADLSLLL; listed as Homo sapiens) [compound 16] | NSCLC, HCC, PC | GB, GC, BPH, CLL, OSCAR, OC, SCLC, UBC, UTC, BRCA, GBC_CCC, MEL, RCC, CRC, AML, NHL |
| 17 (GLLPSAESIKL; listed as Homo sapiens) [compound 17] | NSCLC, BPH, OC, OSCAR | UBC |
| 19 (KVFELDLVTL; listed as Homo sapiens) [compound 19] | GC, NSCLC, CRC, OSCAR | AML, NHL |
| 22 (LMYPYIYHV; listed as Homo sapiens) [compound 22] | GB, NSCLC, OC, OSCAR | HCC, CLL, SCLC, UBC, BRCA, GBC_CCC, MEL, CRC, NHL |
| 25 (LLWGHPRVALA; listed as Homo sapiens) [compound 25] | CRC, PC, NSCLC |  |
| 26 (VLDGKVAVV; listed as Homo sapiens) [compound 26] | HCC, MEL, OC, GB, GC, NSCLC | CLL, UTC, NHL |
| 27 (GLLGKVTSV; listed as Homo sapiens) [compound 27] | NSCLC, BRCA | SCLC, UBC |
| 28 (IKVTDPQLLEL; listed as Homo sapiens) [compound 28] |  | NSCLC, MEL |
